Results from PubChem BioAssay AID200 (DTP/NCI, 2004).
The list is a part of this screen's results and no random one: it is rich in T/C values a quarter to a half above the control, in often repeated tests (any T/C) and in doses without a T/C. Other doses and runs of a compound stand elsewhere. T/C is the treated group as % of the vehicle group. Some entries give survivors of the animals treated and no T/C: the source files T/C as zero there, which appears to mark a toxic dose or a test without result, not a measured value. Some doses without a T/C left all or most animals alive at the check, yet need not have been tolerated: survival well below the control is almost never listed, so the zero probably covers shortened survival too. Survivors were counted at the toxicity check, usually on the fifth day, unless a day is given; later deaths do not show. Schedule codes are those of the source, taken here to give the interval after Q, in days (D) or hours (H), and the number of doses after X. Some entries were tested several times; the values are given in rising order. For survival time, the PubChem record calls one and a half times the control and up active, and a quarter to a half above the control has no call in these data; cut-offs in other NCI protocols can differ. Some T/C values carry the count of animals alive at the toxicity check (mostly the fifth day); where none is given, no animal had died by that day.

System: B6C3F1 mice, B16 melanoma ip, median survival T/C
Experiment: NCI In Vivo Anticancer Drug Screen. Data for tumor model B16 Melanoma (intraperitoneal) in B6C3F1 mice
Settings: T/C endpoint: median survival time, higher T/C = longer survival
Outline: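 Readout: survival or tumor size in treated mice relative to vehicle controls (T/C). Model uses transplantable tumors grown in mice.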

[1] = dose: 25.0 mg/kg/injection, schedule: Q01DX009 (ip), vehicle: saline with Tween-80
[2] = dose: 50.0 mg/kg/injection, schedule: Q01DX009 (ip), vehicle: saline with Tween-80
[3] = dose: 100.0 mg/kg/injection, schedule: Q01DX009 (ip), vehicle: saline with Tween-80
[4] = dose: 200.0 mg/kg/injection, schedule: Q01DX009 (ip), vehicle: saline with Tween-80
[5] = dose: 400.0 mg/kg/injection, schedule: Q01DX009 (ip), vehicle: saline with Tween-80
[6] = dose: 25.0 mg/kg/injection, schedule: Q01DX009 (ip), vehicle: Klucel (hydroxypropylcellulose) (HPC)
[7] = dose: 50.0 mg/kg/injection, schedule: Q01DX009 (ip), vehicle: Klucel (hydroxypropylcellulose) (HPC)
[8] = dose: 100.0 mg/kg/injection, schedule: Q01DX009 (ip), vehicle: Klucel (hydroxypropylcellulose) (HPC)
[9] = dose: 12.5 mg/kg/injection, schedule: Q01DX009 (ip), vehicle: saline
[10] = dose: 25.0 mg/kg/injection, schedule: Q01DX009 (ip), vehicle: saline
[11] = dose: 200.0 mg/kg/injection, schedule: Q01DX009 (ip), vehicle: suspension in saline
[12] = dose: 50.0 mg/kg/injection, schedule: Q01DX009 (ip), vehicle: water

Which results are given for `O=C(Nc1cccc(Cl)c1)ON1C(=O)C2C(C1=O)C1(Cl)C(Cl)C(Cl)C2(Cl)C1(Cl)Cl` (stereo not drawn)?
survivor count [1]: 10 of 10; survivor count [2]: 10 of 10; survivor count [3]: 10 of 10; survivor count [4]: 10 of 10; survivor count [5]: 5 of 10

With `O=C(O)[C@H](Cc1ccccc1)N1C(=O)c2ccccc2C1=O` as the compound, how does the survivor count (dose: 400.0 mg/kg/injection, schedule: Q01DX009 (ip), vehicle: DMSO) read?
The survivor count was 9 of 10.

`O=NN(CCF)C(=O)NC1CCCCC1` was tested. Which survivor count [6] did it give?
The survivor count was 6 of 10.

And the survivor count [7]?
Its survivor count is 7 of 10.

What about the survivor count (dose: 200.0 mg/kg/injection, schedule: Q01DX001 (ip), vehicle: Klucel (hydroxypropylcellulose) (HPC)) of the same compound?
The survivor count was 2 of 10.

With `CC(O)C(NC(=O)OCC1c2ccccc2-c2ccccc21)C(=O)O` (stereo not drawn) as the compound, how does the T/C [8] read?
The T/C was 126 % of control.

And the survivor count (dose: 200.0 mg/kg/injection, schedule: Q01DX009 (ip), vehicle: Klucel (hydroxypropylcellulose) (HPC))?
The survivor count was 8 of 10.

What about the survivor count (dose: 400.0 mg/kg/injection, schedule: Q01DX009 (ip), vehicle: Klucel (hydroxypropylcellulose) (HPC)) of the same compound?
Its survivor count is 0 of 10.

What does the source list for `C[n+]1c(-c2cccc3ccccc23)c2cc(N)ccc2c2ccccc21`?
T/C (dose: 3.13 mg/kg/injection, schedule: Q01DX009 (ip), vehicle: saline): 126 and 130 % of control; T/C (dose: 6.25 mg/kg/injection, schedule: Q01DX009 (ip), vehicle: saline): 126 and 130 % of control; T/C [9]: 126 and 132 % of control [9 of 10 alive]; survivor count [9]: 9 of 10; survivor count [10]: 2 of 10, 4 of 10, 10 of 10; survivor count (dose: 50.0 mg/kg/injection, schedule: Q01DX009 (ip), vehicle: saline): 3 of 10

Which T/C [9] does the source give for `Nc1ncnc2c1ncn2C1OCC(O)C1O` (stereo not drawn) here?
The T/C was 144 % of control.

And the T/C [10]?
The T/C was 130 % of control.

And the T/C (dose: 50.0 mg/kg/injection, schedule: Q01DX009 (ip), vehicle: saline, evaluated on day 50)?
The T/C was 125 % of control.

What about the T/C (dose: 50.0 mg/kg/injection, schedule: Q01DX009 (ip), vehicle: saline, evaluated on day 60) of the same compound?
The T/C was 135 % of control.

What about the T/C (dose: 50.0 mg/kg/injection, schedule: Q01DX009 (ip), vehicle: suspension in saline) of the same compound?
Its T/C is 131 % of control.

And the T/C (dose: 100.0 mg/kg/injection, schedule: Q01DX009 (ip), vehicle: saline, evaluated on day 50)?
The T/C was 129 % of control.

What about the T/C (dose: 100.0 mg/kg/injection, schedule: Q01DX009 (ip), vehicle: saline, evaluated on day 60) of the same compound?
The T/C was 149 % of control.

What about the survivor count [11] of the same compound?
The survivor count was 10 of 10.

For `CC1Nc2ccccc2NC1C` (stereo not drawn), which survivor count [4] is on record?
Its survivor count is 6 of 10.

Which results are given for `CC1OC(O[C@H]2C[C@](O)(C(C)O)Cc3c(O)c4c(c(O)c32)C(=O)c2c(O)cccc2C4=O)CC(NC=O)C1O` (stereo partly drawn)?
T/C (dose: 0.31 mg/kg/injection, schedule: Q01DX001 (ip), vehicle: water): 149 % of control; survivor count (dose: 5.0 mg/kg/injection, schedule: Q01DX001 (ip), vehicle: distilled water + Tween-80): 9 of 10; survivor count (dose: 10.0 mg/kg/injection, schedule: Q01DX001 (ip), vehicle: distilled water + Tween-80): 3 of 10; survivor count (dose: 20.0 mg/kg/injection, schedule: Q01DX001 (ip), vehicle: distilled water + Tween-80): 0 of 10; survivor count (dose: 40.0 mg/kg/injection, schedule: Q01DX001 (ip), vehicle: distilled water + Tween-80): 0 of 10

How did the survivor count [5] turn out when `NCCCNCCSP(=O)(O)O` was run?
Its survivor count is 3 of 6.

What about the survivor count (dose: 400.0 mg/kg/injection, schedule: Q01DX009 (ip), vehicle: saline) of the same compound?
Its survivor count is 10 of 10.

What does the source list for `Cc1oc2c(C)c3oc(=O)cc(C)c3cc2c1CCl`?
survivor count (dose: 12.5 mg/kg/injection, schedule: Q01DX009 (ip), vehicle: saline with Tween-80): 9 of 10; survivor count [2]: 8 of 10 and 10 of 10; survivor count [3]: 0 of 10, 8 of 10, 9 of 10; survivor count [4]: 6 of 10; survivor count [5]: 0 of 10

`O=C(NC(Cc1ccccc1)C(=O)O)c1ccccc1` (stereo not drawn) was tested. Which T/C [4] did it give?
Its T/C is 137 % of control.

And the survivor count [4]?
The survivor count was 10 of 10.

And the survivor count [5]?
The survivor count was 10 of 10.

How did the T/C (dose: 125.0 micrograms/kg/injection, schedule: Q01DX009 (ip), vehicle: saline) turn out when `C/C=C(\C)c1cc(=O)c2c(C)cc3c(c2o1)C(=O)c1c(O)c(C2CC(C)(N(C)C)C(O)C(C)O2)cc(C2CC(N(C)C)C(O)C(C)O2)c1C3=O` (stereo not drawn) was run?
The T/C was 129 % of control.

And the T/C (dose: 250.0 micrograms/kg/injection, schedule: Q01DX009 (ip), vehicle: saline)?
Its T/C is 135 % of control.

What about the T/C (dose: 312.5 micrograms/kg/injection, schedule: Q01DX009 (ip), vehicle: saline) of the same compound?
The T/C was 145 % of control.

And the T/C (dose: 500.0 micrograms/kg/injection, schedule: Q01DX009 (ip), vehicle: saline)?
The T/C was 127 % of control [9 of 10 alive].

And the T/C (dose: 625.0 micrograms/kg/injection, schedule: Q01DX009 (ip), vehicle: saline)?
Its T/C is 134 % of control.

And the T/C (dose: 1000.0 micrograms/kg/injection, schedule: Q01DX009 (ip), vehicle: saline)?
The T/C was 143 % of control.

What about the survivor count (dose: 2500.0 micrograms/kg/injection, schedule: Q01DX009 (ip), vehicle: saline) of the same compound?
Its survivor count is 10 of 10.

Which survivor count [4] does the source give for `c1ccc(P(CCNCCP(c2ccccc2)c2ccccc2)c2ccccc2)cc1` here?
The survivor count was 8 of 8.

What about the survivor count [5] of the same compound?
The survivor count was 7 of 10.

What does the source list for `COc1cc([NH-])c([NH-])cc1OC.[Cl][Pt+2][Cl]`?
survivor count (dose: 160.0 mg/kg/injection, schedule: Q01DX009 (ip), vehicle: saline with Tween-80): 7 of 10; survivor count (dose: 320.0 mg/kg/injection, schedule: Q01DX009 (ip), vehicle: saline with Tween-80): 0 of 10

Which results are given for `COc1cc2c[n+](C)c3c(c2cc1OC)Cc1cc2c(cc1-3)OCO2`?
T/C [1]: 128 % of control; T/C [2]: 133 % of control; survivor count [3]: 10 of 10; survivor count (dose: 100.0 mg/kg/injection, schedule: Q01DX009 (ip), vehicle: suspension in saline): 10 of 10; survivor count [11]: 4 of 10

How did the survivor count [12] turn out when `O=C1C2C3C=CC(C2C(=O)N1CO)C1C2C(=O)N(CO)C(=O)C2C31` (stereo not drawn) was run?
The survivor count was 10 of 10.

What about the survivor count (dose: 100.0 mg/kg/injection, schedule: Q01DX009 (ip), vehicle: water) of the same compound?
Its survivor count is 6 of 10.

How did the T/C (dose: 24.0 mg/kg/injection, schedule: Q01DX009 (ip), vehicle: water) turn out when `O=NN(CCCl)C(=O)NCCO` was run?
Its T/C is 146 % of control.

And the survivor count (dose: 25.0 mg/kg/injection, schedule: Q01DX009 (ip), vehicle: water)?
The survivor count was 10 of 10.

What about the survivor count [12] of the same compound?
The survivor count was 10 of 10.

Which results are given for `S=C1NCc2cncnc2N1`?
survivor count [6]: 0 of 10; survivor count [7]: 0 of 10

How did the survivor count [6] turn out when `O=S(=O)(c1cccc(N=C=S)c1)c1cccc(N=C=S)c1` was run?
The survivor count was 6 of 10.

And the survivor count [7]?
The survivor count was 4 of 10.

What about the survivor count [8] of the same compound?
Its survivor count is 1 of 10.

With `N=C(N)c1nn(C2OC(CO)C(O)C2O)c2nc[nH]c(=O)c12` (stereo not drawn) as the compound, how does the T/C (dose: 6.25 mg/kg/injection, schedule: Q01DX009 (ip), vehicle: Klucel + Tween-80) read?
The T/C was 140 % of control.

And the T/C (dose: 10.42 mg/kg/injection, schedule: Q01DX009 (ip), vehicle: Klucel (hydroxypropylcellulose) (HPC))?
The T/C was 126 % of control.

What about the T/C (dose: 12.5 mg/kg/injection, schedule: Q01DX009 (ip), vehicle: Klucel + Tween-80) of the same compound?
Its T/C is 129 % of control.

And the survivor count (dose: 25.0 mg/kg/injection, schedule: Q01DX009 (ip), vehicle: Klucel + Tween-80)?
The survivor count was 10 of 10.

What about the survivor count (dose: 50.0 mg/kg/injection, schedule: Q01DX009 (ip), vehicle: Klucel + Tween-80) of the same compound?
Its survivor count is 1 of 10.
